Source: patent EP0121013A1, “Oral compositions” (UNILEVER PLC, priority 1983, dated 1984)

Assay: Blind comparative taste test with a panel of 3 assessors
Settings: for taste compared with SnF2: blind test, three judges, equal molar concentrations

N.N.[F-].[F-].[F-].[F-].[F-].[F-].[Sn] [Sn(NH4)2F6, stannic ammonium fluoride]
taste compared with Na2SnF6 (20 sec. rinse with 10 ml of test solution containing 1000 ppm F, blind, unanimous decision of three judges): significantly less metallic taste than Na2SnF6
taste compared with SnF2: significantly less metallic taste than SnF2
taste compared with SnF2 (listed as Sn(NH4)2g6): much less astringent and metallic tasting
